PubChem BioAssay AID652259 – Drosophila RNAi Screening Center, 2013
The screen tested about 22,000 reagents; this is an unselected part of those with a known target gene and a result. Of all reagents, 233 (1.1%) were called active. 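Light values are raw, unnormalised plate reads; the ratio scores behind the reporter calls were not deposited.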 Unmarked entries are inactive. Names joined by + are all predicted targets of the reagent. No sequences are given here. Not given: the amount of reagent, the time to read-out, the dose of the treatment.

Screen: 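Knock-downs that push a Wingless-driven reporter up or down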 (primary screen)
System: Drosophila clone 8 imaginal disc epithelial cells
Reagents: long dsRNA against Drosophila genes
Conditions: pathway stimulated by co-transfected Wingless expression plasmid
Measurement: 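Dual luciferase reads per well after Wingless plasmid stimulation: reporter firefly light and Renilla control light; activity is firefly divided by Renilla, a ratio not deposited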
Direction: firefly reporter light: higher = more Wg reporter light, before normalisation; Renilla control light: higher = more transfected or surviving cells
Active means: 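a knock-down is a candidate when at least two out of four statistical tests show it departing from its plate mean; one test alone signals a weak candidate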
Meaning of the calls: active = candidate regulator (raises or lowers reporter); inactive = not a candidate

With CG34376 [DRSC14695], what does the deposit list?
firefly reporter light, replicate 1: 36361; Renilla control light, replicate 1: 6889

With CG34376 [DRSC14696], what does the deposit list?
firefly reporter light, replicate 1: 39879; Renilla control light, replicate 1: 7015

How did the screen score CG34376 [DRSC14701]?
firefly reporter light, replicate 1: 38020; Renilla control light, replicate 1: 8419

With yellow-c + CIAPIN1 [DRSC01898], how do the results read?
firefly reporter light, replicate 1: 2912; firefly reporter light, replicate 2: 4868; Renilla control light, replicate 1: 1056; Renilla control light, replicate 2: 2736

How did the screen score CG9084 [DRSC07335]?
firefly reporter light, replicate 1: 8538; Renilla control light, replicate 1: 2290

2 entries already listed, ordered by “firefly reporter light, replicate 1”, ascending:
yellow-c + CIAPIN1 [DRSC01898] — firefly reporter light, replicate 1 = 2912; firefly reporter light, replicate 2 = 4868; Renilla control light, replicate 1 = 1056; Renilla control light, replicate 2 = 2736
CG9084 [DRSC07335] — firefly reporter light, replicate 1 = 8538; Renilla control light, replicate 1 = 2290

Continued:
How did the screen score CG10680 [DRSC02093]?
firefly reporter light, replicate 1: 2789; firefly reporter light, replicate 2: 8424; Renilla control light, replicate 1: 709; Renilla control light, replicate 2: 3338

With Cpr67Fa1 [DRSC10932], how do the results read?
firefly reporter light, replicate 1: 8710; Renilla control light, replicate 1: 3861

With CG33307 [DRSC01349], how do the results read?
firefly reporter light, replicate 1: 24005; Renilla control light, replicate 1: 10664

Which result is listed for CG46298 [DRSC06222]?
firefly reporter light, replicate 1: 3820; firefly reporter light, replicate 2: 13152; Renilla control light, replicate 1: 540; Renilla control light, replicate 2: 3564

With salt [DRSC15427], how do the results read?
firefly reporter light, replicate 1: 2357; firefly reporter light, replicate 2: 5553; Renilla control light, replicate 1: 1290; Renilla control light, replicate 2: 2295

With CG32453 [DRSC21673], what does the deposit list?
firefly reporter light, replicate 1: 6.90e5; firefly reporter light, replicate 2: 7.48e5; Renilla control light, replicate 1: 3.71e5; Renilla control light, replicate 2: 2.99e5

For vtd [DRSC20839], what was measured?
firefly reporter light, replicate 1: 20754; Renilla control light, replicate 1: 8352

With CG31274 + MESK4 [DRSC13202], what does the deposit list?
firefly reporter light, replicate 1: 3904; Renilla control light, replicate 1: 1335

Which result is listed for CG3457 [DRSC18509]?
firefly reporter light, replicate 1: 2332; firefly reporter light, replicate 2: 8000; Renilla control light, replicate 1: 1360; Renilla control light, replicate 2: 2840

With CG7460 [DRSC10850], what was measured?
firefly reporter light, replicate 1: 5143; Renilla control light, replicate 1: 2288

How did the screen score CG17991 [DRSC15294]?
firefly reporter light, replicate 1: 5755; Renilla control light, replicate 1: 4129

How did the screen score Uros1 [DRSC18191]?
firefly reporter light, replicate 1: 2272; firefly reporter light, replicate 2: 2743; Renilla control light, replicate 1: 752; Renilla control light, replicate 2: 1533
